Measured values taken from the supplement of paper PMC12067093, “Discovery and optimisation of a covalent ligand for TRIM25 and its application to targeted protein ubiquitination” (Chemical Science, 2025).
The other results are listed elsewhere or left out.

Chains of the proteins cited; added tags and fusions are not shown. Lines headed by an entry give the natural chain unless they say otherwise; changes in a name come on top.
UniProt Q7Z2E3: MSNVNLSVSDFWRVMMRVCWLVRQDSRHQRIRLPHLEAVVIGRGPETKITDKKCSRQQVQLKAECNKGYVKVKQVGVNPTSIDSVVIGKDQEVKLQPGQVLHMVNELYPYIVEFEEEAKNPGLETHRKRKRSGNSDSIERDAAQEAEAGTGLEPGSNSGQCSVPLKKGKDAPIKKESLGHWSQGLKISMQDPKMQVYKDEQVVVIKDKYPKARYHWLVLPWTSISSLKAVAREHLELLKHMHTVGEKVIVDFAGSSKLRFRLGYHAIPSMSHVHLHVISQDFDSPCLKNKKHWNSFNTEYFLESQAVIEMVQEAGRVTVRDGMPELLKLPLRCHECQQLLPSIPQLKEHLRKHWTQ
UniProt Q9UKG1: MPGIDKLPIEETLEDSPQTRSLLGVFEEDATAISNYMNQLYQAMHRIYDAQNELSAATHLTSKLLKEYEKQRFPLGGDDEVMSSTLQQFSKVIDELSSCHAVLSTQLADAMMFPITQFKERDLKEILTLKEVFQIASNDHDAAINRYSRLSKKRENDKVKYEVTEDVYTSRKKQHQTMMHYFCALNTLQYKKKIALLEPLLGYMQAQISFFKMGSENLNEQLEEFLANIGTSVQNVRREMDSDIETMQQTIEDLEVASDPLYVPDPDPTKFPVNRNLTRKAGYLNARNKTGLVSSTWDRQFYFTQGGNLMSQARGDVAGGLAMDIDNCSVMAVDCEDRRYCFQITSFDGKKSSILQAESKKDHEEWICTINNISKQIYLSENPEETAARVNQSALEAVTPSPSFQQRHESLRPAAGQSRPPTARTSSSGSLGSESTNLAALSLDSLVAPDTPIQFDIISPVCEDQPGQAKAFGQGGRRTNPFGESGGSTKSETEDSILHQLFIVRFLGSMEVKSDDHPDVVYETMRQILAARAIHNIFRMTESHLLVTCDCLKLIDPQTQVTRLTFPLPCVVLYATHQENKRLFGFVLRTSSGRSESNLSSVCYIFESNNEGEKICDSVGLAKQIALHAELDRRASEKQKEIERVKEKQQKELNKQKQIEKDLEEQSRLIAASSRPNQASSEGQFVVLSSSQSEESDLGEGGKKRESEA
UniProt P62330: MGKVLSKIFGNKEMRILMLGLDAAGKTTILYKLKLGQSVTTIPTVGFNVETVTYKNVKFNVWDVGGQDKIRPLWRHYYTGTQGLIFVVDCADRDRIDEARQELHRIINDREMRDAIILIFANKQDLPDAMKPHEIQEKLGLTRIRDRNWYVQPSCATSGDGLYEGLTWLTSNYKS
UniProt Q9NVT9: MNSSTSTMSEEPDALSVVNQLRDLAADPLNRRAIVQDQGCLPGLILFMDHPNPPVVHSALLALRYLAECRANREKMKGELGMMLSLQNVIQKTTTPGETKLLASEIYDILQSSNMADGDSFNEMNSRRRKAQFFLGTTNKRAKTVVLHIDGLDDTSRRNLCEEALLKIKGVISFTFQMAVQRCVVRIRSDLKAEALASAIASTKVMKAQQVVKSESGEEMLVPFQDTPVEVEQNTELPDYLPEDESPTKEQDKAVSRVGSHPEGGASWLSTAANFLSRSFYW
UniProt Q66PJ3: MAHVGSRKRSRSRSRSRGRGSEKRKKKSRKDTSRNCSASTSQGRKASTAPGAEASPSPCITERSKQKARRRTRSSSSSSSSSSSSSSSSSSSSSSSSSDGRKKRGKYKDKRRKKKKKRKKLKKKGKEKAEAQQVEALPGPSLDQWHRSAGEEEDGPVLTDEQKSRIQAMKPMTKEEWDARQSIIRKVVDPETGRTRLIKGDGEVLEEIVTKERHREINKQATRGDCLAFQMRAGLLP
UniProt Q92619: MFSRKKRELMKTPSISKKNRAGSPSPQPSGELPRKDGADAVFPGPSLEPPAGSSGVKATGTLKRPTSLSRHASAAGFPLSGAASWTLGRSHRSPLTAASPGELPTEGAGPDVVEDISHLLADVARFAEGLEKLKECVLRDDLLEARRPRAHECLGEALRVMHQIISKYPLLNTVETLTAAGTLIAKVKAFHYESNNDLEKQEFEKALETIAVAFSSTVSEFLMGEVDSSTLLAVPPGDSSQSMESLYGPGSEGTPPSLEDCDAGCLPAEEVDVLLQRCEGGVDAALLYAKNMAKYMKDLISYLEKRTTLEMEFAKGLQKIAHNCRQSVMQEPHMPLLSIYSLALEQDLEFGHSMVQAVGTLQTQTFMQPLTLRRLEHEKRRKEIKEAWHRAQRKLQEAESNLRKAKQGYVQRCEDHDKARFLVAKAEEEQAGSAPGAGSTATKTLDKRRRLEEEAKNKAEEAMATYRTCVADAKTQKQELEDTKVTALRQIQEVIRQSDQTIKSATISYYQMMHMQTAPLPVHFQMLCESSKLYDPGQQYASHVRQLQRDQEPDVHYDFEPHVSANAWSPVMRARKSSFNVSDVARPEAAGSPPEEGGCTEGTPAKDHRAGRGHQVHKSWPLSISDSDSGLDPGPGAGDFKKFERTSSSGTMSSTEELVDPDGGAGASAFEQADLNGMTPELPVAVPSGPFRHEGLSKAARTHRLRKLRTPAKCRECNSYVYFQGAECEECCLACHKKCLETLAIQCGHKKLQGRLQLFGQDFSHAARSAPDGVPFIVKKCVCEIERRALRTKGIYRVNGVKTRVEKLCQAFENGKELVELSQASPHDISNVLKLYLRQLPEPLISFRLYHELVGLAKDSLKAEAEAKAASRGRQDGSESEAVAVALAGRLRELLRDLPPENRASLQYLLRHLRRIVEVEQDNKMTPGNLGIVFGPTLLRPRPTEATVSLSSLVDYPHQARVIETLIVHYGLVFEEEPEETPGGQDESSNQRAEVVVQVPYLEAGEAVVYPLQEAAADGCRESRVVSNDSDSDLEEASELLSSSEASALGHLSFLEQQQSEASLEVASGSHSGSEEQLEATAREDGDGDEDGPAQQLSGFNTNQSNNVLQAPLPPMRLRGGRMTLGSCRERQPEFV
UniProt O95376: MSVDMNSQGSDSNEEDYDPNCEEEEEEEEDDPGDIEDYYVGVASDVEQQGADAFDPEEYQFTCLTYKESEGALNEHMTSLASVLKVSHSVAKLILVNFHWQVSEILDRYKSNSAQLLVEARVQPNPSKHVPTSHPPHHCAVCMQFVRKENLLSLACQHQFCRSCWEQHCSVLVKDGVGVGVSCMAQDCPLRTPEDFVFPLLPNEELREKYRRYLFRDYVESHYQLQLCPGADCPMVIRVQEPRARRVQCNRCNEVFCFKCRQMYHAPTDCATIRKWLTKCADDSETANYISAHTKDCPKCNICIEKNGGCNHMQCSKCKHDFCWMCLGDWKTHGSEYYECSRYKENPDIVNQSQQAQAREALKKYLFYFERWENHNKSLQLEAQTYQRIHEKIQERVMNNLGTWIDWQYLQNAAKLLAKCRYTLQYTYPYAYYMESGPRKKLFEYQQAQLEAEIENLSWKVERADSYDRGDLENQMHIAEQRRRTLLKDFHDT
UniProt P07741: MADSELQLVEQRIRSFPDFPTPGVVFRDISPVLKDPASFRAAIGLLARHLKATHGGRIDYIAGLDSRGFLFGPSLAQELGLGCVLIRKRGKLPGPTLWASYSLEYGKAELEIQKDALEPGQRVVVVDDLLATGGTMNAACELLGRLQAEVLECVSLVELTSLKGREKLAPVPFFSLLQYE
UniProt Q68EM7: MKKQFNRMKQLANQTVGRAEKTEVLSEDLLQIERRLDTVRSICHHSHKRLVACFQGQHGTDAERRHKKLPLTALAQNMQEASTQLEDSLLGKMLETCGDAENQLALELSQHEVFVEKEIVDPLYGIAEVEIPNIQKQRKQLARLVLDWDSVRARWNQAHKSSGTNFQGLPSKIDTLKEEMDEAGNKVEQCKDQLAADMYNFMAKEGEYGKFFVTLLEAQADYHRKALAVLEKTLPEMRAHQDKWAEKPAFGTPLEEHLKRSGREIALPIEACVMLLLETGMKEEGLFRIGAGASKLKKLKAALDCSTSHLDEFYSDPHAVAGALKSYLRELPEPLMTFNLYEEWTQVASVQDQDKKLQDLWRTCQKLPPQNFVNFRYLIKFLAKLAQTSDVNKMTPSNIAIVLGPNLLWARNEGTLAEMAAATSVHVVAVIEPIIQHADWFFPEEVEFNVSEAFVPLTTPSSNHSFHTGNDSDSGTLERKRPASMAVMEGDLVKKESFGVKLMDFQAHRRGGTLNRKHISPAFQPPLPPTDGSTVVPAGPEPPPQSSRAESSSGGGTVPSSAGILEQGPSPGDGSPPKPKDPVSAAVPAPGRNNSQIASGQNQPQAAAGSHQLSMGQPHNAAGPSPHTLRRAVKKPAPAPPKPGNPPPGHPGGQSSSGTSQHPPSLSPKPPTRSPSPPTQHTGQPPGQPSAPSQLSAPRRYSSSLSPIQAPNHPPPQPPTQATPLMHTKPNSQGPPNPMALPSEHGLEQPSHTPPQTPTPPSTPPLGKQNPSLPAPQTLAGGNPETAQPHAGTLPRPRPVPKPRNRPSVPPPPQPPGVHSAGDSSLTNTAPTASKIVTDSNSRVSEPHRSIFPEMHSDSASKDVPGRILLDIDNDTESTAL
UniProt Q92888: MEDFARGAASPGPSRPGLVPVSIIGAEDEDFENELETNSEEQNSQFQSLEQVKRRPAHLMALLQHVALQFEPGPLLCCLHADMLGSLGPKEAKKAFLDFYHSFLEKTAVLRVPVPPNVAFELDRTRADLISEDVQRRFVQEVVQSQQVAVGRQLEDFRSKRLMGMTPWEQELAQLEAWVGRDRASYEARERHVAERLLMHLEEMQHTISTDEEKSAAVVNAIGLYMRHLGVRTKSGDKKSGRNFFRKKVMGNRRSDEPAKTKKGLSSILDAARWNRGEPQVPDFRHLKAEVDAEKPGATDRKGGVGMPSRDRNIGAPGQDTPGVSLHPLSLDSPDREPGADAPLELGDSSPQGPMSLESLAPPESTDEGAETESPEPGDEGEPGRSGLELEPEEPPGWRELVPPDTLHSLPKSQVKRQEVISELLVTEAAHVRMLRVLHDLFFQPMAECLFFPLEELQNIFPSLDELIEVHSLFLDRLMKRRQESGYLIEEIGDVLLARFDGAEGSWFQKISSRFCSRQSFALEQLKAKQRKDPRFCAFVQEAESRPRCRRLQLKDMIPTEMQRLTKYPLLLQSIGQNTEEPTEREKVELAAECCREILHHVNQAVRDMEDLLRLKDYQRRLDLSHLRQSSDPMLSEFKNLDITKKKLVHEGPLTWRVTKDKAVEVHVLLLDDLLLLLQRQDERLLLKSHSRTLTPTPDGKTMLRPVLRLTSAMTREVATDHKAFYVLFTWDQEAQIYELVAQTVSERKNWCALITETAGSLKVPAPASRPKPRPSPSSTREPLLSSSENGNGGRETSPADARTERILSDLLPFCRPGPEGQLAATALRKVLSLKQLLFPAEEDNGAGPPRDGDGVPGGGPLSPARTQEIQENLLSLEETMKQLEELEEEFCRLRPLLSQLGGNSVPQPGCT
UniProt Q0VD83: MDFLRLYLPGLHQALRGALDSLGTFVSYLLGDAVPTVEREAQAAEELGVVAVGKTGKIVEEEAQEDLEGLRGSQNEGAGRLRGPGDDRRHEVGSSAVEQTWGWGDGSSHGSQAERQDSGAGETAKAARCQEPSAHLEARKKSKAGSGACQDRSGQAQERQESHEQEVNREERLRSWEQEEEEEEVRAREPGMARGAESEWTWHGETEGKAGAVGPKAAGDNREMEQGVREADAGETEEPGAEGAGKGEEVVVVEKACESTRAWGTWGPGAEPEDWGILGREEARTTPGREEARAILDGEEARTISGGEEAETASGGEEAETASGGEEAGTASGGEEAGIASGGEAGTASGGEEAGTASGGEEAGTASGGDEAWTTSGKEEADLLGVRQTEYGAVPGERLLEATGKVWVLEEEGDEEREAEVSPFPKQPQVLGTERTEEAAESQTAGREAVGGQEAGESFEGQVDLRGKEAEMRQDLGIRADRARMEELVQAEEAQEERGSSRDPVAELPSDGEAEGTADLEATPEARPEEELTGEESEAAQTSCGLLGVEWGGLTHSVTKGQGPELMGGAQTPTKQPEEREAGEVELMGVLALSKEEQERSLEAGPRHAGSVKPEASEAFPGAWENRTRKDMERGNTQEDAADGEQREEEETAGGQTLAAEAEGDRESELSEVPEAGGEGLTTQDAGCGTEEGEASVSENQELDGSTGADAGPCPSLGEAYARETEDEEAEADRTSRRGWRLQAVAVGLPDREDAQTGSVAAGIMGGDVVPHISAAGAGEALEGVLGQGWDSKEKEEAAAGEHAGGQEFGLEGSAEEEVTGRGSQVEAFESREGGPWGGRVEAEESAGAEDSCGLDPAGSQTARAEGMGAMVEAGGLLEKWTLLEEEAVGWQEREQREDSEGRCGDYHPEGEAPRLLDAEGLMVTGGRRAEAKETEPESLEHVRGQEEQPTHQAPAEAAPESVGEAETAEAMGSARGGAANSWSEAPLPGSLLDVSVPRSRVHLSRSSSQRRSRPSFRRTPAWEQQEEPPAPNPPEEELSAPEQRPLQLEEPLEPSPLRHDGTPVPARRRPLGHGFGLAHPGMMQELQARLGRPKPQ

Compound: CC1Cc2ccccc2N1C(=O)C1CCCN(C1)C(=O)CCl (mixture of isomers) [TRIM25 ligand 11 (diastereomer mixture)]
Experiment: probe-labelled cysteine peptide fold change vs DMSO (competition) (log2 fold change); higher = less target engagement (more negative = stronger competition)
Conditions: THP-1, incubation time: 4 h
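Also: competitive chemoproteomic profiling in live THP-1 cells with an iodoacetamide desthiobiotin (IA-DTB) probe, comparing probe-labelled peptide intensities in compound-treated cells against DMSO-treated controls.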

Target | probe-labelled cysteine peptide fold change (10 µM) | probe-labelled cysteine peptide fold change (50 µM)
ARF3_P61204_159_HRNWYIQATCATSGDGLYEGLDWLANQLK (UniProt P61204) | -0.226 | -0.355
ARHGAP30_Q7Z6I6_965_IHVAPANPCPR (UniProt Q7Z6I6) | 0.0712 | -0.00183
ARAP1_Q96P48_38_ALHLEQYTGLFEQHGLVWATECQGLSDTR (UniProt Q96P48) | -0.213 | -0.114
ARHGEF2_Q92974_478_LIHDGCLLWK (UniProt Q92974) | 0.0428 | 0.0708
ARL6_Q9H0F7_22_EVHVLCLGLDNSGK (UniProt Q9H0F7) | -0.061 | 0.0744
AQR_O60306_681_NLMNTDCVVPDWLHDIILGYGDPSSAHYSK (UniProt O60306) | 0.236 | 0.0307
ARNT_P27540_400_NIVEFCHPEDQQLLR (UniProt P27540) | 0.207 | 0.149
ARHGAP4_P98171_569_GEDPLVEGCTAHDLDSVAGVLK (UniProt P98171) | 0.262 | -0.17
ARFGEF2_Q9Y6D5_1617_LLDCLQESHSFSK (UniProt Q9Y6D5) | 0.0257 | 0.00817
APTX_Q7Z2E3_333_CHECQQLLPSIPQLK (UniProt Q7Z2E3) | -0.088 | -0.0506
APPL1_Q9UKG1_570_LTFPLPCVVLYATHQENKR (UniProt Q9UKG1) | 0.0343 | 0.102
ARAP3_Q8WWN8_835_GDHLFLCSAPGPGPPAPEDMVHLR (UniProt Q8WWN8) | 0.0134 | -0.0903
ARF6_P62330_90_HYYTGTQGLIFVVDCADRDR (UniProt P62330) | 0.0124 | -0.0303
ARAP1_Q96P48_803_ASEIVCLAVPPPDTHGFEHTFEVYTEGER (UniProt Q96P48) | -0.0144 | -0.0359
ARMC1_Q9NVT9_69_YLAECR (UniProt Q9NVT9) | -0.126 | -0.0139
ARF4_P18085_62_NICFTVWDVGGQDR (UniProt P18085) | 0.182 | 0.283
ARAF_P10398_597_TQADELPACLLSAAR (UniProt P10398) | -0.183 | -0.217
ARAP3_Q8WWN8_1215_KVPLAQAGCLFTGIR (UniProt Q8WWN8) | -0.0673 | -0.0217
ARL6IP4_Q66PJ3-3_220_NCSASTSQER (UniProt Q66PJ3) | -0.0967 | -0.0385
ARHGAP45_Q92619_153_AHECLGEALR (UniProt Q92619) | -0.0548 | -0.15
ARHGAP25_P42331_89_AQQLYYYKDEEDTKPQGCMYLPGCTIK (UniProt P42331) | -0.122 | 0.0538

Target | probe-labelled cysteine peptide fold change (10 µM) | probe-labelled cysteine peptide fold change (50 µM)
ARHGEF17_Q96PE2_1439_LELCATRPEGTDSYIFEFPHPDAR (UniProt Q96PE2) | -0.0635 | 0.121
ARHGEF18_Q6ZSZ5_494_LFPCADDLLETHSHFLAR (UniProt Q6ZSZ5) | 0.035 | -0.127
ARIH2_O95376_340_THGSEYYECSR (UniProt O95376) | 0.223 | -0.0532
ARHGEF2_Q92974_306_QALCPGSTR (UniProt Q92974) | 0.0543 | 0.045
ARHGEF6_Q15052_66_FCLDPQTEADCINNINDFLK (UniProt Q15052) | 0.119 | -0.105
APRT_P07741_83_GFLFGPSLAQELGLGCVLIRK (UniProt P07741) | -0.359 | -0.22
ARHGAP30_Q7Z6I6_640_GSGSLEGEAAGCGR (UniProt Q7Z6I6) | -0.132 | -0.294
ARHGEF6_Q15052_514_LDEIEGNDCTFEITGNTVER (UniProt Q15052) | 0.175 | -0.0916
ARHGEF2_Q92974_68_EALICPTCNVTIHNR (UniProt Q92974) | 0.0449 | -0.0699
ARHGAP9_Q9BRR9_542_DQVFGCQLESLCQR (UniProt Q9BRR9) | 0.0968 | -0.0738
ARHGAP17_Q68EM7_305_AALDCSTSHLDEFYSDPHAVAGALK (UniProt Q68EM7) | 0.0514 | -0.0366
ARHGAP1_Q07960_91_IIVFSACR (UniProt Q07960) | -0.111 | 0.0117
ARHGEF1_Q92888_537_FCAFVQEAESRPR (UniProt Q92888) | 0.119 | 0.000203
ARID4A_P29374_356_LVYHQGGCDNIDSGAVWK (UniProt P29374) | -0.107 | -0.0505
ARHGEF40_Q8TER5_1148_ELQGCATHPLR (UniProt Q8TER5) | 0.126 | 0.0937
ARHGEF2_Q92974_573_TCPSREDFPLIETEDEAYLRR (UniProt Q92974) | 0.058 | -0.000812
APP_P05067_144_MDVCETHLHWHTVAK (UniProt P05067) | -0.042 | -0.087
ARNT_P27540_265_RSFICR (UniProt P27540) | -0.00972 | 0.125
APPL1_Q9UKG1_341_YCFQITSFDGK (UniProt Q9UKG1) | 0.129 | 0.216
APOBEC3G_Q9HC16_261_HAELCFLDVIPFWK (UniProt Q9HC16) | 0.00279 | -0.116
APTX_Q7Z2E3_161_DAAQEAEAGTGLEPGSNSGQCSVPLK (UniProt Q7Z2E3) | 0.282 | -0.342

Target | probe-labelled cysteine peptide fold change (10 µM) | probe-labelled cysteine peptide fold change (50 µM)
ARHGAP30_Q7Z6I6_1021_TQTCTEGGDYCLIPR (UniProt Q7Z6I6) | -0.0997 | -0.199
ARAP1_Q96P48_995_KCGQTSK (UniProt Q96P48) | -0.225 | -0.37
ARID2_Q68CP9_1271_IEVMENPSCR (UniProt Q68CP9) | 0.107 | -0.219
ARHGEF2_Q92974_478_KLIHDGCLLWK (UniProt Q92974) | -0.223 | -0.0788
ARHGEF18_Q6ZSZ5_105_LSLDASAVDEEPCLPR (UniProt Q6ZSZ5) | -0.0696 | -0.0183
ARHGEF11_O15085_793_LFPNLPELIEIHNSWCEAMK (UniProt O15085) | 0.113 | -0.158
ARMC7_Q9H6L4_144_SFLPELTATPVVQCMLR (UniProt Q9H6L4) | -0.0899 | 0.0296
ARHGAP17_Q68EM7_53_LVACFQGQHGTDAERR (UniProt Q68EM7) | 0.0214 | -0.0123
AQR_O60306_28_IVAPTVSQINAEFVTQLACK (UniProt O60306) | 0.0381 | 0.0549
ARHGEF16_Q5VV41_438_LPLLMDTLCLK (UniProt Q5VV41) | 0.0473 | 0.378
APOBR_Q0VD83_895_CGDYHPEGEAPR (UniProt Q0VD83) | 0.0339 | -0.0535
ARFGAP2_Q8N6H7_97_QHGCTANDANTK (UniProt Q8N6H7) | -0.00842 | -0.00956
ARHGEF2_Q92974_282_TGMLEELHLEPGVVQGLFPCVDELSDIHTR (UniProt Q92974) | -0.139 | -0.128
ARHGAP15_Q53QZ3_140_TGHKPESVDLCGAHIEWAK (UniProt Q53QZ3) | -0.0612 | -0.171
ARHGAP26_Q9UNA1_11+12_GLPALEFSDCCLDSPHFR (UniProt Q9UNA1) | 0.341 | 0.048
ARMH3_Q5T2E6_80_DNINCLFQHCIQALGEEHPIR (UniProt Q5T2E6) | -0.195 | 0.135
ARHGAP17_Q68EM7_190_EEMDEAGNKVEQCK (UniProt Q68EM7) | -0.0498 | 0.0528
APOBEC3G_Q9HC16_221_GRHETYLCYEVER (UniProt Q9HC16) | 0.137 | -0.2
ARL6IP4_Q66PJ3_243_ASTAPGAEASPSPCITER (UniProt Q66PJ3) | -0.00569 | 0.0914
ARHGEF10_O15013_1335_ASSALVVCGGQGHR (UniProt O15013) | -0.169 | -0.173
APPL1_Q9UKG1_328_GDVAGGLAMDIDNCSVMAVDCEDRR (UniProt Q9UKG1) | -0.254 | -0.395

Target | probe-labelled cysteine peptide fold change (10 µM) | probe-labelled cysteine peptide fold change (50 µM)
ARHGAP45_Q92619_809_LCQAFENGK (UniProt Q92619) | -0.0731 | 0.0183
ARHGEF10L_Q9HCE6_988_TLLSLEDAVWASCGPR (UniProt Q9HCE6) | 0.22 | 0.124
ARIH2_O95376_326_HDFCWMCLGDWK (UniProt O95376) | -0.0551 | -0.112
ARAP1_Q96P48_900_AVFPEGPCEEPLQLR (UniProt Q96P48) | -0.0195 | -0.149
APOBR_Q0VD83_257_ACESTR (UniProt Q0VD83) | 0.201 | 0.222
ARHGAP11A_Q6P4F7_451_EVNGCSGVNR (UniProt Q6P4F7) | -0.0271 | -0.137
ARHGAP30_Q7Z6I6_654_QALGQGGEEQACWEVGEDK (UniProt Q7Z6I6) | -0.162 | -0.317
ARHGEF6_Q15052_119_ATEDQLSERPCGR (UniProt Q15052) | -0.0511 | -0.0611
ARMC1_Q9NVT9_161_NLCEEALLK (UniProt Q9NVT9) | -0.0945 | 0.302
ARHGEF1_Q92888_815_ILSDLLPFCR (UniProt Q92888) | 0.0201 | -0.139
APOBEC3G_Q9HC16_243_GFLCNQAPHK (UniProt Q9HC16) | 0.0831 | 0.0911
ARL14EP_Q8N8R7_5_MMDPCSVGVQLR (UniProt Q8N8R7) | 0.152 | -0.0459
ARID1A_O14497_1968_ILEDEPHSKDETPLCTLLDWQDSLAK (UniProt O14497) | -0.016 | -0.0153
ARF6_P62330_90_HYYTGTQGLIFVVDCADRDRIDEAR (UniProt P62330) | -0.368 | 0.0425
ARHGAP35_Q9NRY4_663_LPVNSFQTPTFQPHGCLCLYNSK (UniProt Q9NRY4) | 0.0228 | 0.0815
ARHGAP30_Q7Z6I6_1021_RTQTCTEGGDYCLIPR (UniProt Q7Z6I6) | 0.285 | 0.271
ARMCX3_Q9UH62_52_MAEGGSGDVDDAGDCSGAR (UniProt Q9UH62) | -0.248 | -0.267
ARPC1A_Q92747_340_NTALETLHQNSITQVSIYEVDKQDCR (UniProt Q92747) | -0.0748 | -0.137
APPL2_Q8NEU8_606_ICYAINLGK (UniProt Q8NEU8) | 0.195 | 0.246

Rewritten with each value named: entries from further up
ARHGEF6_Q15052_66_FCLDPQTEADCINNINDFLK (UniProt Q15052)
  probe-labelled cysteine peptide fold change (10 µM) = 0.119; probe-labelled cysteine peptide fold change (50 µM) = -0.105
APRT_P07741_83_GFLFGPSLAQELGLGCVLIRK (UniProt P07741)
  probe-labelled cysteine peptide fold change (10 µM) = -0.359; probe-labelled cysteine peptide fold change (50 µM) = -0.22
ARHGAP30_Q7Z6I6_640_GSGSLEGEAAGCGR (UniProt Q7Z6I6)
  probe-labelled cysteine peptide fold change (10 µM) = -0.132; probe-labelled cysteine peptide fold change (50 µM) = -0.294
ARHGEF6_Q15052_514_LDEIEGNDCTFEITGNTVER (UniProt Q15052)
  probe-labelled cysteine peptide fold change (10 µM) = 0.175; probe-labelled cysteine peptide fold change (50 µM) = -0.0916
